The test system of the data set is NF-kB p65 + NF-kB p50. Nature of the data set: EMSA supershift. The following applies: nuclear extract, anti-CD3 + anti-CD28 stimulated RA PBMC, anti-p65 and anti-p50 each shift the band in separate lanes; 20 mM Tris-HCl pH 7.9, 50 mM KCl, 1 mM DTT, 0.5 mM EDTA, 5% glycerol, 1 mg/ml BSA, 0.2% NP-40, 50 ng/ul poly(dI-dC); 2 ug nuclear extract, 10 ng probe, 20 ul, 30 min; protein in an extract; label: 5'-32P on sense strand.

For at least one entry, the source does not settle the construct or the ends of the probe. Where cells or extracts were used, other partners may take part.

Data on one sequence can be found in paper PMC1064895.

In the case of “ATGACCTGGAAATACCCAAAATTC (double strand) [IL-17 promoter NF-kB site probe]”, the binding result is “binds”.
